The target in this assay is T1, tumor protein D54 (human (endogenous in MCF-7)) (UniProt O43399).
T1 sequence: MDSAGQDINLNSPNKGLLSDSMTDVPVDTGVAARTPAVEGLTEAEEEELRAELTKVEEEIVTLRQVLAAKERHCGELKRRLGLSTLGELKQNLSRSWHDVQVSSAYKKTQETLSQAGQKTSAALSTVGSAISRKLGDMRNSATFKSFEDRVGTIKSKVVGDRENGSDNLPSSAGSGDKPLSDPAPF
In words: affinity purification with mass spectrometry; TPD54 immunoprecipitated from MCF-7 cells, then mass spectrometry of the co-precipitated proteins.

No constants are given. Whether binding was seen depends on the method and setting. Binding seen in cells or lysates may run through a third protein. A yes stands for co-enrichment or nearness to the bait. Other partners may have been found.

B1: pyruvate dehydrogenase B subunit (protein, UniProt P11177 31-359)
chain: LQVTVRDAINQGMDEELERDEKVFLLGEEVAQYDGAYKVSRGLWKKYGDKRIIDTPISEMGFAGIAVGAAMAGLRPICEFMTFNFSMQAIDQVINSAAKTYYMSGGLQPVPIVFRGPNGASAGVAAQHSQCFAAWYGHCPGLKVVSPWNSEDAKGLIKSAIRDNNPVVVLENELMYGVPFEFPPEAQSKDFLIPIGKAKIERQGTHITVVSHSRPVGHCLEAAAVLSKEGVECEVINMRTIRPMDMETIEASVMKTNHLVTVEGGWPQFGVGAEICARIMEGPAFNFLDAPAVRVTGADVPMPYAKILEDNSIPQVKDIIFAIKKTLNI
In the case of B1, the binding entry is given as “binds”.

The record behind these values is article PMC6345044.
